Primary screen of a compound library

Chains of the proteins cited; added tags and fusions are not shown.
UniProt P9WPC5, whole entry: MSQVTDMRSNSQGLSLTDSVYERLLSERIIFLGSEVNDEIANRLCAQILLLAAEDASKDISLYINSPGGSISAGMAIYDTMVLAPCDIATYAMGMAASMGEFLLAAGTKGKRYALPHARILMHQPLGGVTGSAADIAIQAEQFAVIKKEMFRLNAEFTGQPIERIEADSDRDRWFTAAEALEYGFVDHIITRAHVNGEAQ
UniProt P9WPC3, whole entry partner: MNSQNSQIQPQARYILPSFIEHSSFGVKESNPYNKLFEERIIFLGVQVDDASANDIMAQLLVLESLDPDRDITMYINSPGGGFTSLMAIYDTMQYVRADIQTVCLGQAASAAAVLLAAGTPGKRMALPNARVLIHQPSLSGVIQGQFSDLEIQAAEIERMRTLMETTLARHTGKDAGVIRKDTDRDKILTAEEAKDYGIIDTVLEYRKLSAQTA
UniProt P9WNZ1, whole entry: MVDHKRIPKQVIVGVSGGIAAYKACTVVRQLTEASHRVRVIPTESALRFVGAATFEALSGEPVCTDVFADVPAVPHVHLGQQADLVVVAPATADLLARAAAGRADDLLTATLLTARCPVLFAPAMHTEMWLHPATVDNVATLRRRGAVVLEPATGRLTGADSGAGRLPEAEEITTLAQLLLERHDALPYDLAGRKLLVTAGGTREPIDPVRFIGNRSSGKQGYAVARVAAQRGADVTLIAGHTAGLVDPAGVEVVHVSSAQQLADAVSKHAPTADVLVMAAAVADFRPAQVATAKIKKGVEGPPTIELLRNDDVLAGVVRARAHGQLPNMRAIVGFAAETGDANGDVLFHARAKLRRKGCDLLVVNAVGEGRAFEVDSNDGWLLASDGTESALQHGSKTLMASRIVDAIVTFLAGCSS

Toxoplasma: 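Assay of Toxoplasma gondii numbers, read through their beta-galactosidase reporter with a colour substrate. Tested at 10 µM. Higher reads as fewer parasites (inferred from which compounds were picked for retests). About 67,000 compounds were tested under these conditions; 0.38% (about 260) showed 50% or more at least once.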
ClpP1P2: 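ClpP1P2, Mycobacterium tuberculosis (UniProt P9WPC5 and UniProt P9WPC3). Protease assay of ClpP1P2, read by the AMC dye that it sets free. Concentration: 50 µM. Higher reads as stronger inhibition, judged from the few compounds that gave an IC50. Most other retested compounds had strongly negative values. Size under these conditions: about 69,000 compounds, about 10 of them at 50% or above in at least one test.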
T. brucei: 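Whole-parasite assay of Trypanosoma brucei over 72 hours; the read-out is not stated. Tested at 30 µM. The record gives no direction; compounds that gave an IC50 in retests scored well above the rest, so higher reads as stronger inhibition. Values scatter widely below zero; nearly all retest evidence comes from the higher of the two concentrations used. Size under these conditions: about 64,000 compounds, about 940 of them at 50% or above in at least one test.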
CoaBC: 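Enzyme assay of CoaBC with a phosphate dye (Biomol Green) read at 650 nm. Target: Coenzyme A biosynthesis protein CoaBC, Mycobacterium tuberculosis (UniProt P9WNZ1). Concentration: 30 µM. Higher reads as stronger inhibition, judged from the few compounds that gave an IC50. Most strong results did not repeat in a second test. Size under these conditions: about 67,000 compounds, about 40 of them at 50% or above in at least one test.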

Values are the deposited “Percent Effect”, in %.
The controls that fix the scale are not given in the record; negative values are as filed.
Compounds were drawn at random from those tested, without regard to their results.
A dash means the value is not listed here; it may have been measured.

| # | compound | Toxoplasma | ClpP1P2 | T. brucei | CoaBC |
|---|---|---|---|---|---|
| 1 | `CC1=Nc2c(c(O)nn2C(C)C)C(c2cccnc2)S1` (configuration not stated) | - | -15.32 | -32.69 | 4.253 |
| 2 | `O=C(NC(CN1CCCC1)c1ccccc1)c1c(O)cc(F)cc1F` (configuration not stated) | 20.89 | 3.468 | -9.792 | 12.36 |
| 3 | `Cc1noc(NC(=O)c2ccc(Br)cc2)n1` | 41.75 | 4.321 | 95.54 | 10.52 |
| 4 | `CCN1CCC2(CC1)CC(COC)N(Cc1csc(C)n1)C2.O=C(O)C(F)(F)F.O=C(O)C(F)(F)F` (configuration not stated) | -4.241 | - | - | - |
| 5 | `Cc1noc(CCCC(=O)NCC(c2ccco2)N2CCCCC2)n1` (configuration not stated) | -11.62 | -1.04 | -46.79 | 5.693 |
| 6 | `CCc1nc(-c2ccc(C(=O)N3CCC4(CC3)OCCO4)cc2)no1` | 1.438 | -14.34 | -37.3 | 2.025 |
| 7 | `Cc1n[nH]c(C2CN(C(=O)Cn3ccccc3=O)CCO2)n1` (configuration not stated) | 2.081 | -2.03 | 3.549 | 3.394 |
| 8 | `O=C(O)C(F)(F)F.[H][C@@]12CN(Cc3cccs3)C[C@@]1([H])N(CC1CC1)C(=O)CO2` | 5.341 | - | 16.88 | - |
| 9 | `COCCO[C@H]1CCN(C(=O)c2ccno2)[C@H]1Cc1ccncc1` | - | -8.381 | - | 3.832 |
| 10 | `COc1cc(C2(C(=O)N3CCN(CC(C)O)CC3)CC2)ccc1C` (configuration not stated) | -0.3464 | -9.316 | -14.61 | 7.727 |
| 11 | `Cn1nccc1CNC(=O)NC1CCN(c2ncccc2Cl)C1` (configuration not stated) | -11.58 | -4.424 | -12.43 | -1.966 |
| 12 | `COCC(C)(C)NC(=O)CC(c1ccccc1)C(F)(F)F` (configuration not stated) | -9.527 | 3.495 | - | 5.6 |
| 13 | `[H][C@@]12CCN(C3CCC3)[C@]1([H])CC[C@@H](c1nnc(C)o1)O2` | 0.08399 | - | -16.85 | - |
| 14 | `CN(CCO)Cc1cc(=O)n2cc(Br)ccc2n1` | -6.186 | 1.097 | -46.05 | -13.92 |
| 15 | `CC(C)OCc1ncn2c1CN(Cc1ccc(F)cc1)CCC2` | - | 3.084 | - | 5.141 |
| 16 | `CN1CC(=O)N(c2cccnc2)CC12CCN(C(=O)c1cccn1C)C2.O=C(O)C(F)(F)F.O=C(O)C(F)(F)F` (configuration not stated) | 8.364 | - | -4.553 | - |
| 17 | `O=C(CN1CCCC1Cn1cncn1)Nc1ccnn1C1CCCC1` (configuration not stated) | 0.1831 | -14.94 | -12.34 | 3.316 |
| 18 | `CCNc1nc(-c2cccnc2)c(-c2ccnc(NCCO)n2)s1` | 32.17 | 9.138 | 9.967 | 6.145 |
| 19 | `NC(=O)NCCC(=O)NCc1cccnc1N1CCc2ccccc2C1` | -2.499 | 7.688 | -12.52 | 8.811 |
| 20 | `COc1cccc2c(=O)n(Cc3nc(C)cc(O)n3)cnc12` | 27.06 | 8.344 | -49.11 | 4.198 |
| 21 | `Cn1cc(CN2CCc3c(COCc4ccncc4)cncc3C2)cn1` | 0.7836 | 2.119 | -13.22 | 8.32 |
| 22 | `CCC(CC)NC(=O)c1ncn2c1CN(CC)S(=O)(=O)c1ccccc1-2` | - | -8.926 | - | 5.584 |
| 23 | `O=C(c1ccncc1)N1CCC(O)(Cn2ccc3ccncc32)CC1` | -4.676 | 4.915 | 8.286 | -3.889 |
| 24 | `O=C(NCc1ccco1)[C@@]12CCO[C@@H]1CCN(c1ncccn1)C2` | - | 6.468 | - | -0.3257 |
| 25 | `CCOC1CC2(CCN(Cc3nccn3C)CC2)C1.O=C(O)C(F)(F)F` | -3.831 | - | -69.85 | - |
| 26 | `CC(OCc1ccccc1)C(=O)NCc1ccc(N(C)C)cc1` (configuration not stated) | -12.85 | -33.81 | - | 2.611 |
| 27 | `[H][C@@]12CCN(C[C@@H]1CN(C)c1ccccc1)[C@@H](CNC(=O)c1ccco1)C2` | -2.141 | - | 19.93 | - |
| 28 | `Cc1cccc(C(C)CNC(=O)N2CCOCC3(CCOCC3)C2)c1` (configuration not stated) | 2.481 | -5.902 | -13.6 | 0.9494 |
| 29 | `CSCCC(Nc1nc(C)cc(C)n1)C(=O)NC1CCCC1` (configuration not stated) | - | -5.632 | 9.438 | 3.038 |
| 30 | `CN(CCOCC1CC1)C(=O)Nc1ccc([S+](C)[O-])c(F)c1` (configuration not stated) | -9.8 | -11.15 | -4.609 | 6.734 |
| 31 | `O=C(c1ccncn1)N1CCC[C@]2(C[C@@H](OCc3ccccn3)CO2)C1` | -19.91 | 5.545 | -479.5 | -1 |
| 32 | `COCCN1C(=O)C2(CCC(C(=O)Nc3ccccn3)CC2)N=C1C` (configuration not stated) | -2.518 | 5.147 | - | 11.67 |
| 33 | `CC(=O)N1CCO[C@@H]2CN(C(=O)NCc3ccccc3)CC[C@@H]2C1` | - | 9.59 | - | 3.21 |
| 34 | `Cc1cccc(C(=O)N2CCC[C@]3(C[C@@H](OCC4CC4)CO3)C2)n1.O=C(O)C(F)(F)F` | -52.25 | - | -336.7 | - |
| 35 | `CC(=O)N1CCCc2sc(C(=O)Nc3ccc(C)nc3)nc21` | -7.233 | 0.02064 | -21.76 | 7.582 |
| 36 | `CS(=O)(=O)N1CCN(C(=O)Cn2ccc3c(Cl)cccc32)CC1` | -2.145 | 9.49 | -46.8 | -5.702 |
| 37 | `CC(=O)N1CCCC1c1nnc2n1CCCCC2` (configuration not stated) | -8.345 | 3.728 | 25.48 | 4.762 |
| 38 | `CC(C)CSCCCNC(=O)C1CCC1` | -1.072 | -17.89 | 7.848 | -4.369 |
| 39 | `COc1ccnc(CNc2nc(C)nc(C)c2C)c1` | 6.717 | -3.386 | -31.8 | 3.804 |
| 40 | `CC(C)(C)CC(=O)NC[C@H]1OC[C@@H](NC2CCC(F)(F)CC2)[C@@H]1O` | 9.26 | 2.359 | -7.042 | 8.609 |
| 41 | `CN(CCO)C[C@@H]1CN(Cc2ccccc2C#N)C[C@@H]1CO` | 22.06 | -7.428 | -42.1 | 5.455 |

Some entries from above, unchanged:

compound,Toxoplasma,ClpP1P2,T. brucei,CoaBC
Cn1cc(CN2CCc3c(COCc4ccncc4)cncc3C2)cn1,0.7836,2.119,-13.22,8.32
COc1ccnc(CNc2nc(C)nc(C)c2C)c1,6.717,-3.386,-31.8,3.804
COc1cc(C2(C(=O)N3CCN(CC(C)O)CC3)CC2)ccc1C (configuration not stated),-0.3464,-9.316,-14.61,7.727

The values are deposited in ChEMBL (CHEMBL3988442, “University of Dundee, Small-Polar-MMV Screening Library” (2021)).